In paper PMC4060991, “The Human Orphan Nuclear Receptor Tailless (TLX, NR2E1) Is Druggable” (PLoS ONE, 2014):
Results are given in words; binding and its absence hold for the method and conditions named. Some binding calls cover weakened binding; strength is not graded here.

Protein sequences, listed by entry. Tags and fused reporters are not part of them. Residues count along the entry.
UniProt Q9Y466, residues 187-385: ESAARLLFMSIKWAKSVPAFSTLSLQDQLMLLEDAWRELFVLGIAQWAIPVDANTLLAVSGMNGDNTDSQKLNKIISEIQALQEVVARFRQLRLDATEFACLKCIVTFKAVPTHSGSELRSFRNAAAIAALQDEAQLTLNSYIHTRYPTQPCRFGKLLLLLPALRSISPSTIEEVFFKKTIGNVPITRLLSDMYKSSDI

Molecular target: human TLX ligand binding domain (TLX LBD, a.a. 187-385) (human) (UniProt Q9Y466)
Test: AUC; analytical ultracentrifugation in the presence of the three hit compounds (ccrp1, ccrp2, ccrp3) at 100 µM; data not shown; dimer to monomers; both purified

Substance: human TLX ligand binding domain (TLX LBD, a.a. 187-385) (from UniProt Q9Y466 187-385) (domain or fragment)
- binding: binds
